Measurements as given in publication doi:10.1101/2020.06.18.158576 (bioRxiv, 2020).
Numbering of substitutions follows the chain as printed. Names may count otherwise. Results are given in words; binding and its absence hold for the method and conditions named. Some binding calls cover weakened binding; strength is not graded here. Each block holds one binder with its values, some of them ahead of it.

Legend:
[1] = molecular target: T1, KaiB (unlabeled) (Synechococcus elongatus) (UniProt Q79PF5); assay: fluorescence polarisation
T1 sequence: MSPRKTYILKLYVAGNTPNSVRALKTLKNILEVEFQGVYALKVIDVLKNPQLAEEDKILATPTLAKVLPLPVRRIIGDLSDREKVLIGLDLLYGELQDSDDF

[2] = molecular target: T2, CikA (unlabeled) (Synechococcus elongatus) (UniProt Q9KHI5); assay: fluorescence polarisation
T2 sequence: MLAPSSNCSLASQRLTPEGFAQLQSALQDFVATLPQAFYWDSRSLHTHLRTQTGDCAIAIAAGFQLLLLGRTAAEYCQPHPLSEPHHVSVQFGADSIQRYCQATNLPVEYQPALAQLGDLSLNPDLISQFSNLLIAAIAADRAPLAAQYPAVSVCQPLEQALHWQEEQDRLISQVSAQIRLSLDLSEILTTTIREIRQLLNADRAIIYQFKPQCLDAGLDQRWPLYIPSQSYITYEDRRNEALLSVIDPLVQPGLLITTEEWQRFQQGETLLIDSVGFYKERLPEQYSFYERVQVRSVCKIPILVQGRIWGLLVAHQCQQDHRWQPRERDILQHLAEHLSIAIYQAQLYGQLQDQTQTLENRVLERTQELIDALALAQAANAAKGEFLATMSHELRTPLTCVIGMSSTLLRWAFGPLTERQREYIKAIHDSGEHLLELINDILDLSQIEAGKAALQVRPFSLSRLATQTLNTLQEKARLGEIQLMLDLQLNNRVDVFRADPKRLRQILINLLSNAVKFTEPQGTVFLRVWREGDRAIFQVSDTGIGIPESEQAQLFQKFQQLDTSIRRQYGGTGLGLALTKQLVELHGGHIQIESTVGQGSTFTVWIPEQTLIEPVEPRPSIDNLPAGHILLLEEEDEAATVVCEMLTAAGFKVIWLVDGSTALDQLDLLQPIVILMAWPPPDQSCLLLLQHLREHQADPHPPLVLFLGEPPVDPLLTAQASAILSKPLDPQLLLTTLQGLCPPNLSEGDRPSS

binding [1]: binds
B1: CikA, fluorescently labeled probe (enzyme, UniProt Q9KHI5 1-754)
chain: T2 sequence
modifications: fluorescently labeled using sortase-mediated ligation

binding [2]: binds
B2: RpaA R121Q mutant (natural protein)
chain: MKPRILVIDDDSAILELVAVNLEMSGYDVRKAEDGIKGQALAVQLVPDLIMLDLMLPRVDGFTVCQRLRRDERTAEIPVLMLTALGQTQDKVEGFNAGADDYLTKPFEVEEMLARVRALLQRTDRIPHAARHSEILSYGPLTLIPERFEAIWFNRTVKLTHLEFELLHCLLQRHGQTVAPSEILKEVWGYDPDDDIETIRVHIRHLRTKLEPDPRHPRYIKTVYGAGYCLELPAETELHQHADQFPSAS

binding [2]: binds
B3: RpaA, fluorescently labeled probe (natural protein)
chain: B2 chain with Q121R
modifications: fluorescently labeled using sortase-mediated ligation
